## Screening data, single-dose tests

Source: ChEMBL document CHEMBL3988442, “University of Dundee, Small-Polar-MMV Screening Library” (2021).

T. brucei: 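Whole-parasite assay of Trypanosoma brucei over 72 hours; the read-out is not stated. Tested at 30 µM. The record gives no direction; compounds that gave an IC50 in retests scored well above the rest, so higher reads as stronger inhibition. Values scatter widely below zero; nearly all retest evidence comes from the higher of the two concentrations used. Size under these conditions: about 64,000 compounds, about 940 of them at 50% or above in at least one test.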
Leishmania in macrophages: 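Cell assay of Leishmania donovani living inside macrophages; the read-out is not stated. Concentration: 30 µM. The record gives no direction; compounds that gave an IC50 in retests scored well above the rest, so higher reads as stronger inhibition. Size under these conditions: about 69,000 compounds, about 1,000 of them at 50% or above in at least one test.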

The filed quantity is “Percent Effect” (%).
The controls that fix the scale are not given in the record; negative values are as filed.
Compounds were drawn at random from those tested, without regard to their results.
Two or more numbers in one place are separate tests of the same structure; such repeats can differ widely.
A dash means the value is not listed here; it may have been measured.

Compound,T. brucei,Leishmania in macrophages
O=C(O)C(F)(F)F.O=C(O)C(F)(F)F.O=C(O)C(F)(F)F.[H][C@@]12C[C@@H](Oc3cccc(F)c3)CN1CCN(Cc1ccncc1)C2,-1.835%,19.69%
COC(=O)CNCC1(O)CCCN(Cc2cccc(F)c2F)C1=O (centres unmarked),1.755%,22.86%
O=C(O)C(F)(F)F.[H][C@@]12COC[C@@H](CC(=O)N3CCCC3)[C@]1([H])CN(C(=O)c1cccc(C)n1)C2,-15.29%,11.27%
Nc1nccc(N[C@H]2CN(CC(=O)NC3CCCCC3)C[C@@H]2C2CC2)n1,26.38%,31.16%
COCCCNC(=O)Cn1c(-c2cccc(Cl)c2)nc(C)cc1=O,-,35.78%
CNC(=O)c1cccnc1Oc1ccccc1,-1.686%,8.196%
COc1ccc(C)cc1S(=O)(=O)NCC(c1cccn1C)N(C)C (centres unmarked),-85.17%,33.36%
CN(C)c1ccc(C(=O)N2CCC(c3n[nH]c(C4CC4)n3)CC2)cc1,-10.16%,-0.247%
COC(=O)CCNC(=O)c1cnc(Cc2ccc(F)cc2)s1,3.867%,2.839%
CN(C)CC1CN(Cc2coc(-c3ccc(Cl)cc3)n2)CCO1 (centres unmarked),62.36%,29.57%
CC(C)(C)NC(=O)C1CSCN1S(=O)(=O)c1ccc(F)cc1 (centres unmarked),27.61%,20.47%
CC(=O)Nc1nc(CNc2ccccc2CCC(F)(F)F)cs1,-11.33%,-4.538%
COc1ccc(C(C)NC(=O)NCCNc2ccccn2)c(OC)c1 (centres unmarked),-16.02%,-12.44%
C=C(C)CN1CCCC1c1nc(Cc2ccc(F)cc2)no1 (centres unmarked),-43.52%,-18.88%
O=C(O)C(F)(F)F.c1cnc(NC2COC3(CCN(Cc4nccs4)CC3)C2)cn1 (centres unmarked),-510.2%,3.706%
CCCC(=O)N1CCC(Nc2ncc(Br)cn2)CC1,-14.79%,11.48%
c1ccc(C2(NCC3CNc4ccnn4C3)CCC2)cc1 (centres unmarked),31.74%,25.07%
COc1ccc(OCC(=O)n2nc(C)c(C)c2C)cc1,-15.86%,43.01%
O=C(Cc1ccc(F)cc1)N1CCn2cc(Cn3cccn3)nc2C1.O=C(O)C(F)(F)F,-,-23.45%
CCN(CCc1ccccc1)Cn1nc(C)c2c(C)onc2c1=O,15.47%,11.49%
Cc1cccc(C(=O)N2CC[C@]3(C[C@H](OCc4ccccn4)CO3)C2)c1.O=C(O)C(F)(F)F,-74.39%,44.38%
Cc1ccc(NCc2cncc3c2CCN(Cc2ccccn2)C3)nn1.Cl.Cl,-48.05%,7.397%
CCn1ccnc1CN1CCN(Cc2cnc(C)cn2)CC1C (centres unmarked),-14.68%,6.855%
Cc1cc(NC(=O)CN2CCOC(Cn3cccn3)C2)n(C)n1 (centres unmarked),-8.476%,-11.11%
CC(C)Oc1ncccc1CNC(=O)c1cc(C2CC2)on1,-17.8%,-23.31%
CCCN(CCC)S(=O)(=O)N(C)Cc1ccncc1,-5.969%,-18.73%
CCn1nc(C)c(CNC(=O)c2cn(CCC3CCCCN3)nn2)c1C (centres unmarked),34.84%,16.07%
[H][C@]12CC[C@]([H])(CN(S(=O)(=O)c3ccc(Cl)cc3Cl)C1)N(C)C2=O,13.71%,30.78%
CCCc1cc(N2CCC(NC3CCOCC3)CC2)nc(C)n1,-,27.39%
O=C(O)C(F)(F)F.[H][C@@]12COC[C@@H](CC(=O)N3CCCCO3)[C@]1([H])CN(CC1CCOCC1)C2,-3.088%,25.77%
CC(=O)N(C)c1nc(CN2CCCC2c2cnn(C)c2)cs1 (centres unmarked),-,30.01%
FC(F)(F)CN1CCC(CNc2nc3ccccc3o2)C1 (centres unmarked),7.28%,9.133%
Cc1cc(C)nc(N(C)CCn2ccnc2C)n1,-8.465%,-10.88%
CCS(=O)(=O)Nc1ccn(Cc2c(F)cccc2Cl)n1,-3.244%,-2.733%
O=C(O)C(F)(F)F.O=C1N(CC2CC2)CCC12CCN(c1ncccn1)CC2,-19.41%,19.97%
O=C(NCC(=O)N1CCCc2ccccc21)c1c(O)cc(F)cc1F,-,16.08%
CN(C)C(CNCc1nc(-c2ccsc2)no1)c1ccsc1 (centres unmarked),-476.6%,15.42%
O=C(c1cccc(-n2cccn2)c1)N1CCCOC(Cn2cccn2)C1 (centres unmarked),1.754%,35.18%
COc1cc(OC)cc(N2CCC(NC(=O)c3ccc[nH]3)CC2)c1,8.755%,18.02%
O=C(O)C(F)(F)F.[H][C@@]12C[C@H](C(=O)N3CCCC3)[C@@]([H])(CN(CC(C)C)C1)O2,-50.57%,7.112%
[H][C@@]12CCCCCN(C)[C@@]1([H])[C@H](c1ccccc1)CN2S(=O)(=O)C(C)C,-,17.21%
CC(CNC(=O)c1cc(C2CC2)nc2c1cnn2C)Cn1cccn1 (centres unmarked),8.396%,-9.312%
[H][C@@]12CN(C(=O)N(C)C)C[C@]1([H])C(=O)NC21CCN(C(=O)C(C)C)CC1,-10.62%,9.304%
CC(C)CNC(=O)CC1(Cn2cnnn2)CCCCC1,-2.915%,42.47% and 9.318%
Cc1nn(C)c(Cl)c1CNCc1cccnc1N1CCCCC1.Cl,-43.14%,-11.04%
NC(=O)C1CCN(CCc2ccc(NC(=O)C3CC3)cc2)CC1,-,13.51%
Cc1cn2c(n1)CCC(NC(=O)CCn1cncn1)C2 (centres unmarked),-29.92%,-0.3522%
COC(C)(C)c1noc(C2(C#N)CCCC2)n1,-19.17%,-4.673%
c1cc(CN2CCOCC3(CCN(C4CCOCC4)C3)C2)ccn1 (centres unmarked),-17.78%,14.83%
CC1N(CC2CC2)C(=O)COC12CCN(C(=O)c1cccs1)CC2 (centres unmarked),-86.46%,21.54%
Cl.NC(CNS(=O)(=O)Cc1cccc2cccnc12)c1ccccc1 (centres unmarked),-35.32%,12.3%
[H][C@]12CC[C@@]3(N=C(C)N(CC4CC4)C3=O)[C@@]1([H])CN(C(=O)NC(C)C)C2,0.3707%,-2.24%
Cc1cc(NC(C)c2nncn2C2CCCC2)n2nc(C)cc2n1 (centres unmarked),9.959%,21.11%
CCC[C@@H]1CN(S(=O)(=O)c2ccc(OC)c(OC)c2)C[C@H]1NC(C)=O,-13.04%,17.4%
CN(C)CC(=O)N1Cc2nc(C(=O)N3CCCN(C)CC3)oc2C1,-74.68%,25.68%
COc1cccc(CC(C)NCC(=O)Nc2ccccc2C)c1 (centres unmarked),-16.67%,15.32%
COc1ccc(C(=O)C2CCCN(Cc3ccccc3O)C2)c(OC)c1 (centres unmarked),-40.18%,19.14%
CSCC(C)NS(=O)(=O)c1ccc(C)c(N(C)C)c1 (centres unmarked),-8.514%,3.075%
CC(C)c1cc(C(=O)N2CCN(Cc3ccco3)CC2)n[nH]1,-35.92%,-24.48%
O=C(O)C(F)(F)F.[H][C@@]12CN(C(=O)c3cccnc3)C[C@]1([H])C(=O)N(Cc1cccc(F)c1)C2,24.01%,21.1%
CC1(C)CC(N(Cc2ccccc2)Cc2ncc[nH]2)CC(C)(C)N1.O=C(O)CC(O)(CC(=O)O)C(=O)O,10.45%,29.59%
CCOCC1CN(C(=O)c2cccc(C)n2)Cc2cnn(C)c21 (centres unmarked),-1.844%,17.85%
COCCC(=O)NC1CCN(CC2(c3cccc(F)c3)CCCC2)CC1.Cl,0.1938%,7.61%
O=C(NC1CC1)c1nc(Cn2c(C(F)F)nc3ccccc32)no1,-35.01%,-15.36%
CCOCc1ncn2c1CN(C(=O)Nc1cccc(F)c1)CC2,-8.89%,2.194%
CCC(C(=O)N1CCCSCC1)N1CCCC1=O (centres unmarked),-5.845%,9.636%
Cc1cc(Nc2cnccn2)cc(C2CCCN2)n1 (centres unmarked),-0.7034%,50.63%
CCN1CC2(CCC1=O)CCN(CCOc1ccc(F)cc1)CC2,-26.01%,19.57%
CCN(Cc1ccncc1)S(C)(=O)=O,-21.95%,14.36%
CN(Cc1ccc(Cl)s1)C(=O)NCc1nnc2n1CCC2,7.316%,8.883%
Cn1c(CN2CCOCC2)cc(=O)c(O)c1CN1CCOCC1,-5.781%,-36.14%
CC(C)(C)OC(=O)NCC(=O)NCc1ccc(Cl)s1,-6.841%,17.36%
COc1cccc(CC(C)NC(=O)c2ccc(CNC(C)=O)cc2)c1 (centres unmarked),-21.75%,-12.61%
O=C(O)C(F)(F)F.[H][C@@]12COC[C@]1(CN(C)C)CN(C(=O)Cc1ccc(OC)cc1)C2,15.01%,26.86%